Assay results from publication PMC8520208.
Results are given in words; binding and its absence hold for the method and conditions named. In cells and extracts the contact can be indirect. Some entries that bind do so weakly or less than the wild type. Sequences can lack the tags named with a protein.

The chains behind the UniProt entries cited, without tags or fusion partners.
UniProt Q00987: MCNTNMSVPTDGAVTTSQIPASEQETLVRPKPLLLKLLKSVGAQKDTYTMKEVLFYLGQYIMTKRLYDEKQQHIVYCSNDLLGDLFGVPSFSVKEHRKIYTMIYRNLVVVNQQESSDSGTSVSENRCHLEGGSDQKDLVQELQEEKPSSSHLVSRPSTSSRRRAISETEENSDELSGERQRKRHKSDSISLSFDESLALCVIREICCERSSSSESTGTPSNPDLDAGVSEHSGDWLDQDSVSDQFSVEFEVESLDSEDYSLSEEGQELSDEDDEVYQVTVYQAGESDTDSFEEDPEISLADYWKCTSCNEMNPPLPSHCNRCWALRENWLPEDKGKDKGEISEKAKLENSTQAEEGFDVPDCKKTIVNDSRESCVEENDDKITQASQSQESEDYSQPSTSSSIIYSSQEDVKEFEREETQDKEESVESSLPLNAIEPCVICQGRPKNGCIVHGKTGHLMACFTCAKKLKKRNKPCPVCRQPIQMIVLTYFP

Target: MDM2 in RKO cells (human (endogenous in RKO)) (UniProt Q00987)
Experiment: co-IP; RKO cells with Flag-C2CD4A; co-immunoprecipitation with MDM2 (Additional file 5: Fig. S2C); antibodies not told in the text shown

binding: binds
B1: Flag-C2CD4A (C2 calcium dependent domain containing 4A), expressed in RKO cells (protein, UniProt Q8NCU7 1-369)
chain: MWCLERLRLGPECLRRSGDWLLPGRARGAKSRTTAACANVLTPDRIPEFCIPPRLMPRLALAALRNSWVEEAGMDEGAGRTDWDPRSQAALSLPHLPRVRTAYGFCALLESPHTRRKESLLLGGPPAPRPRAHTYGGGGGPDALLGTLRVPRAPGPATPAAPGCPRPPQDALARRPRGCRLLRVPDGLLSRALRAGRSRRLTRVRSVSSGNEDKERRAGSQSPARAPSTSPPSSRVPFPERLEAEGTVALGRAGDALRLAAEYCPGTGRLRLRLLRAESPAGGAPGPRAVSCRLSLVLRPPGTALRQCSTVVGRSRKASFDQDFCFDGLSEDEVRRLAVRVKARDEGRGRERGRLLGQGELSLGALLLL
